Drug screen on melanoma cell lines: apoptosis marker

Data from the primary screen of doi:10.1371/journal.pone.0140310, rounded.

Drug key:
CX-4945, 2 µM: O=C(O)c1ccc2c(c1)nc(Nc1cccc(Cl)c1)c1ccncc12
GW2580, 5 µM: COc1ccc(COc2ccc(Cc3cnc(N)nc3N)cc2OC)cc1
gemcitabine, 0.002 µM: Nc1ccn([C@@H]2O[C@H](CO)[C@@H](O)C2(F)F)c(=O)n1
tipifarnib, 0.05 µM: Cn1cncc1[C@@](N)(c1ccc(Cl)cc1)c1ccc2c(c1)c(-c1cccc(Cl)c1)cc(=O)n2C
PF-562271, 0.4 µM: CN(c1ncccc1CNc1nc(Nc2ccc3c(c2)CC(=O)N3)ncc1C(F)(F)F)S(C)(=O)=O
FH535, 5 µM: Cc1cc([N+](=O)[O-])ccc1NS(=O)(=O)c1cc(Cl)ccc1Cl
bexarotene, 10 µM: C=C(c1ccc(C(=O)O)cc1)c1cc2c(cc1C)C(C)(C)CCC2(C)C
A-769662, 10 µM: N#Cc1c(O)c2c(-c3ccc(-c4ccccc4O)cc3)csc2[nH]c1=O
sorafenib, 2 µM: CNC(=O)c1cc(Oc2ccc(NC(=O)Nc3ccc(Cl)c(C(F)(F)F)c3)cc2)ccn1

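Human melanoma cell lines in 1,536-well plates were treated with a pair of drugs for 72 h, then fixed, stained and imaged. Each value is the cleaved-PARP-positive fraction of nuclei relative to DMSO-treated wells, in %, so that 100 equals the control and higher values mean more apoptosis. Every drug was used at one fixed concentration, the higher of two screened. These are primary screening values without error estimates. Basal and induced levels differ widely between cell lines.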 This is part of the screen, not chosen by result. A dash means that no value is listed here.

Drugs	G-361	C32	A375	SK-MEL-2	IST-MEL1	WM3526	RVH-421	LB2518-MEL
FH535 and tipifarnib	348	102	146	71.7	285	156	224	84.7
A-769662 and sorafenib	172	83.1	56.6	75.8	95.2	45.4	191	53.6
A-769662 and bexarotene	796	134	43.0	101	187	118	289	69.7
CX-4945 and gemcitabine	369	207	147	159	148	303	90.5	134
sorafenib and gemcitabine	341	67.9	139	65.9	298	82.4	358	-
A-769662 and FH535	258	104	16.6	69.2	62.7	50.0	154	75.4
PF-562271 and GW2580	32.6	186	97.7	62.4	121	114	147	314
FH535 and sorafenib	1870	95.5	174	103	300	314	112	477
A-769662 and PF-562271	89.0	85.6	46.2	75.4	103	57.6	75.5	223
gemcitabine and bexarotene	343	132	74.1	90.8	138	85.2	341	103
bexarotene and FH535	417	90.3	89.7	19.6	67.8	157	59.6	62.6
CX-4945 and A-769662	142	71.1	218	132	37.3	160	130	93.1
PF-562271 and gemcitabine	267	325	215	385	213	46.4	208	191
A-769662 and GW2580	46.9	167	87.2	101	60.3	55.5	70.6	94.1
bexarotene and tipifarnib	237	39.0	-	206	128	108	76.8	74.7
GW2580 and bexarotene	386	73.3	111	66.4	203	101	70.4	50.9
FH535 and PF-562271	276	115	226	134	81.7	238	76.2	76.9
A-769662 and tipifarnib	128	98.6	59.0	189	89.6	50.2	167	96.3
sorafenib and tipifarnib	92.2	165	-	141	113	148	56.3	80.1
A-769662 and gemcitabine	271	75.1	30.2	136	325	106	78.7	206
GW2580 and sorafenib	58.2	72.4	57.7	213	90.0	118	58.4	100
GW2580 and tipifarnib	59.5	106	45.4	71.4	44.0	133	274	90.7
bexarotene and PF-562271	151	893	181	232	72.0	89.0	70.0	92.7
tipifarnib and gemcitabine	479	133	-	188	303	108	180	195
CX-4945 and sorafenib	134	160	202	386	71.6	331	99.9	61.9
gemcitabine and GW2580	140	212	49.2	55.4	292	45.1	389	67.1
sorafenib and PF-562271	126	175	54.2	269	82.1	135	42.1	137
CX-4945 and GW2580	107	257	440	90.8	95.1	174	68.1	45.4
CX-4945 and bexarotene	191	228	140	214	99.0	489	67.0	63.3
PF-562271 and CX-4945	195	1130	349	405	221	270	86.3	93.4
bexarotene and sorafenib	124	117	80.0	146	164	145	130	153
tipifarnib and PF-562271	74.9	210	-	185	87.6	98.3	120	62.2
FH535 and CX-4945	346	92.7	299	150	76.9	245	83.4	-
FH535 and gemcitabine	875	168	154	49.5	196	72.6	368	60.1
FH535 and GW2580	1040	89.8	141	51.2	79.0	252	174	136

Once more, the final 2:

Drugs	G-361	C32	A375	SK-MEL-2	IST-MEL1	WM3526	RVH-421	LB2518-MEL
FH535 and gemcitabine	875	168	154	49.5	196	72.6	368	60.1
FH535 and GW2580	1040	89.8	141	51.2	79.0	252	174	136